The text below walks through data of US20210145933A1.

Sequences of proteins named here, by UniProt entry; tags and fusion partners are left off. A change or cut given only in a name is not applied to a line headed by its entry.
UniProt P01024: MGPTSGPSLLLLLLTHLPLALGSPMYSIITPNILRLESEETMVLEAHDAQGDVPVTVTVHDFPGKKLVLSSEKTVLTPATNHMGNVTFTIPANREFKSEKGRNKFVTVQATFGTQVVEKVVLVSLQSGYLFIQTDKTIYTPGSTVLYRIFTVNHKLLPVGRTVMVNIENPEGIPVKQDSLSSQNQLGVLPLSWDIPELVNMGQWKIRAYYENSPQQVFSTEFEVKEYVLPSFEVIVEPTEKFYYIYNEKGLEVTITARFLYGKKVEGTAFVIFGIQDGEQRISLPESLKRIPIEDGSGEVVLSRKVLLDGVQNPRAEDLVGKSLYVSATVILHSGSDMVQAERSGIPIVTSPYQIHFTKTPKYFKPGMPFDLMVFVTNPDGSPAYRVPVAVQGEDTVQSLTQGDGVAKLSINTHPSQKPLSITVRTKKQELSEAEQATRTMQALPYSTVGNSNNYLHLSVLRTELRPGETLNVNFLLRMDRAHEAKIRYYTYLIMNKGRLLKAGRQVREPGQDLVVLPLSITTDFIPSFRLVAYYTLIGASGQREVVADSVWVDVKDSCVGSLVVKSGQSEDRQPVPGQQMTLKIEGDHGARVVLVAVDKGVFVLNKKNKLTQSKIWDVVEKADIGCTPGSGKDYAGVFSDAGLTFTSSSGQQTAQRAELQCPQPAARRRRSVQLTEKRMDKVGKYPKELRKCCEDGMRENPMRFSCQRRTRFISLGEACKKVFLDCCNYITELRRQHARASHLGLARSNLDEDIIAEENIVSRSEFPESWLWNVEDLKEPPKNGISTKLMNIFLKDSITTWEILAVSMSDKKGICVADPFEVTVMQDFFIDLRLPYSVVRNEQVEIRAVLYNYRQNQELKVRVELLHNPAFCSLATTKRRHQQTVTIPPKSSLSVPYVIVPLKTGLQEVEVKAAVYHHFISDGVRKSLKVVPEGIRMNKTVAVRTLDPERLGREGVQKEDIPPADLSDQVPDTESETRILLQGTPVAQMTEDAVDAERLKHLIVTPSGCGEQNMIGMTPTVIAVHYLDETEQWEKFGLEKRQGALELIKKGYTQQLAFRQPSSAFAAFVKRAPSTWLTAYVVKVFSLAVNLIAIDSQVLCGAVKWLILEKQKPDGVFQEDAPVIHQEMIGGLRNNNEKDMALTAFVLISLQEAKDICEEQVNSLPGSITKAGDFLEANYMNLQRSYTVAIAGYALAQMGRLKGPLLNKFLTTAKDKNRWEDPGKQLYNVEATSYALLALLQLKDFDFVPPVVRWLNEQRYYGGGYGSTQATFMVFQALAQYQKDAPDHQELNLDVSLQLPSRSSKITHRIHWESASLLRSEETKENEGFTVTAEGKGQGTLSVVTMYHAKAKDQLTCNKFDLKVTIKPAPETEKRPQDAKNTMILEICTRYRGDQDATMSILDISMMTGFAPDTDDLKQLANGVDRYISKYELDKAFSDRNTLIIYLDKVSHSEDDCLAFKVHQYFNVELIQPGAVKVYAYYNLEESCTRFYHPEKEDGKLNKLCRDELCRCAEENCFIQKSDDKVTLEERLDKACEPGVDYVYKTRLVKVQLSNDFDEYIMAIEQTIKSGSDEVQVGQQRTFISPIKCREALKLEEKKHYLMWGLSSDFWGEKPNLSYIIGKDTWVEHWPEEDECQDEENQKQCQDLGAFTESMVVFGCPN
UniProt P17927: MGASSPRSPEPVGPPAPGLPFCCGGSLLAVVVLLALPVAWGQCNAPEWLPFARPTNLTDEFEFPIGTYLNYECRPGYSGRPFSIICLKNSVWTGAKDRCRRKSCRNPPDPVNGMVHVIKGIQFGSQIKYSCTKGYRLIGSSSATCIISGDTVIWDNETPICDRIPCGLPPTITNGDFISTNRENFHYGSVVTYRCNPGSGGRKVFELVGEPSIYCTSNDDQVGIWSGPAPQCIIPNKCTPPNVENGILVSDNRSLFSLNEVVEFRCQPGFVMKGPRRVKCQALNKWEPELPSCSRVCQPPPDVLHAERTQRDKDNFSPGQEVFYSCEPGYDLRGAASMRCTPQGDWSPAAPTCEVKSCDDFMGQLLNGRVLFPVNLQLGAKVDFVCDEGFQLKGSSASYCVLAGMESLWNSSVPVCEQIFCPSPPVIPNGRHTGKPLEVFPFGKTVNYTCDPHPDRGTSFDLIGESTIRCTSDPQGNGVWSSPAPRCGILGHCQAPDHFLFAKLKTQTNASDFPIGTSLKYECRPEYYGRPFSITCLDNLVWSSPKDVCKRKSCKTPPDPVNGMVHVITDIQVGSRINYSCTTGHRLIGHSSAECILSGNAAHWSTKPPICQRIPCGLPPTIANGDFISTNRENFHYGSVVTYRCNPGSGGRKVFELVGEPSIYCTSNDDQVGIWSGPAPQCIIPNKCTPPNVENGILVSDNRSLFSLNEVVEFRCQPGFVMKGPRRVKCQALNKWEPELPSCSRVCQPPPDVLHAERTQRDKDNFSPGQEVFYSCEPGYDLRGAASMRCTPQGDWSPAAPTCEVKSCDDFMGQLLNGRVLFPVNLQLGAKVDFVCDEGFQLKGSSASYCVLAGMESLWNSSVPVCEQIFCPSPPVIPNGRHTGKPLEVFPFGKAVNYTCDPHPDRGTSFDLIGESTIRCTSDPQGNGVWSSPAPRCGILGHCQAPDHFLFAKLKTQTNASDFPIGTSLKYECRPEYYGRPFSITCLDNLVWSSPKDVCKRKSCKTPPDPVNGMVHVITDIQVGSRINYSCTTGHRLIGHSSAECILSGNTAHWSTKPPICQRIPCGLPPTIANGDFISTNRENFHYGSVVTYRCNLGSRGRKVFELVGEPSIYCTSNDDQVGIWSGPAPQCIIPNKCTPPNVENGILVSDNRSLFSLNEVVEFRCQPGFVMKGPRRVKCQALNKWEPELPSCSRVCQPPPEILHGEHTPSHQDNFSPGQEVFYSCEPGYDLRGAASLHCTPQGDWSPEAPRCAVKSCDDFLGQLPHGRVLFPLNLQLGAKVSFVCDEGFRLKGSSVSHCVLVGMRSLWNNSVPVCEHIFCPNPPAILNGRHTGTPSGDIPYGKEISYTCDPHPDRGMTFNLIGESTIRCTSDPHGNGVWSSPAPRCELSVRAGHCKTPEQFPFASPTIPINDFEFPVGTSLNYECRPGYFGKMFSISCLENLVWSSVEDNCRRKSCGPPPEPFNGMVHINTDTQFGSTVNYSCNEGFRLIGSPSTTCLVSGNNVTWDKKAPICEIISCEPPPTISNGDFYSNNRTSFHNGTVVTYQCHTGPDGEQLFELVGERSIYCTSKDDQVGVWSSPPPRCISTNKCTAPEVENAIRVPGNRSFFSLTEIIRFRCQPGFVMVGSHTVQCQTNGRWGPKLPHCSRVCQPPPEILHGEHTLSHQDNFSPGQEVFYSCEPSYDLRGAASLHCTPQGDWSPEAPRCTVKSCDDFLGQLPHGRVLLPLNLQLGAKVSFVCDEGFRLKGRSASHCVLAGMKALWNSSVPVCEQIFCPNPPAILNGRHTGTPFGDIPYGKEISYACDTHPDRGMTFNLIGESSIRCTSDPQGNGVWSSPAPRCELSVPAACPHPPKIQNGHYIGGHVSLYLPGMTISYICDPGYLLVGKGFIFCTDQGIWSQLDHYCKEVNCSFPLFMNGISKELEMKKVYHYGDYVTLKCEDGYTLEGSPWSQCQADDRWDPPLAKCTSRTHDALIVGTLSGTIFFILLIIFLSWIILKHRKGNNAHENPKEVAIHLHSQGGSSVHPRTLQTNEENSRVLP
UniProt P08603: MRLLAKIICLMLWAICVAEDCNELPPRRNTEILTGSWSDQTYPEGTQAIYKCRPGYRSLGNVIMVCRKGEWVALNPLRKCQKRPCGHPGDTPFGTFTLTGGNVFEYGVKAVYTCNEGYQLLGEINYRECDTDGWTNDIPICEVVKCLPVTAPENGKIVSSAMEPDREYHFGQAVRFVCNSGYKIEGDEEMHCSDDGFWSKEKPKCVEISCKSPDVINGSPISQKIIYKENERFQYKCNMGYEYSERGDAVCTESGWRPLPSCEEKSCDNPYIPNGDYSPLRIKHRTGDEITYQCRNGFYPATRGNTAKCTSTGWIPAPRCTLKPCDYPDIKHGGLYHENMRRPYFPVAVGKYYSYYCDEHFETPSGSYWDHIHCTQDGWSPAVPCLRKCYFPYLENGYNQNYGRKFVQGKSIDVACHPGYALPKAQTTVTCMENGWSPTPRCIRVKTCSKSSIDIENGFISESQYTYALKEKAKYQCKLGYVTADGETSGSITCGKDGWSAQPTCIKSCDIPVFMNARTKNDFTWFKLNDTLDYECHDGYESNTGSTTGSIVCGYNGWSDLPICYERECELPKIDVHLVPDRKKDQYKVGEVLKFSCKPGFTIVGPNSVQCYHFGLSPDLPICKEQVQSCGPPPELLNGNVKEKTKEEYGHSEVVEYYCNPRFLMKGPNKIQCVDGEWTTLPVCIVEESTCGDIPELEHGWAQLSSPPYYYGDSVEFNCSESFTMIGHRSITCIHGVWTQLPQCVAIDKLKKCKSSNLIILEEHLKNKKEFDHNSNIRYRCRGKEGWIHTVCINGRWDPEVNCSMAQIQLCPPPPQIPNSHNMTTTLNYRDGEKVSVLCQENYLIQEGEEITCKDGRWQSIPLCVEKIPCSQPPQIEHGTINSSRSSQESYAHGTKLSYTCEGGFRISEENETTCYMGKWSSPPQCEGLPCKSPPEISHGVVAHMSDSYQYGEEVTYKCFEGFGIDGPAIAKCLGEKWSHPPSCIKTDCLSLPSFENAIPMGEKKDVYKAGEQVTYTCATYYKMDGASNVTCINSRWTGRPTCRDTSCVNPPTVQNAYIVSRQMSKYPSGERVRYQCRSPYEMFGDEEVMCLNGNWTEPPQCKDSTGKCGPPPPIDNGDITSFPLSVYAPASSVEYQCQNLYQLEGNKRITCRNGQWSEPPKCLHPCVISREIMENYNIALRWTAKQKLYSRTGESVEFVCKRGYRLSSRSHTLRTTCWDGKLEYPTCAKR

No constants are given. Whether binding was seen depends on the method and setting. Some results given as binding are weak or reduced against the parent protein; the word gives no strength.

For test [1], the target named is C3b (human) (UniProt P01024). The experiment in a line: BLI (OctetRed96), immobilised biotinylated C3b.
Test [2] concerns the target C3b (human) (UniProt P01024). Description: BLI (OctetRed96), biotinylated C3b on streptavidin (SAX) sensors, concentration series of CR1a [cont'd].
The target of test [3] is C3b (human) (UniProt P01024). Description: BLI (OctetRed96), biotinylated C3b on streptavidin (SAX) sensors, concentration series of FH [cont'd].
For test [4], the target named is C3b (human) (UniProt P01024). Description: BLI (OctetRed96), biotinylated C3b on streptavidin (SAX) sensors, concentration series of FHL-1 [cont'd].

For “CR1a (CCPs 8-10 of human Complement Receptor 1, secreted from HEK293 cells) (from UniProt P17927 491-684)”, the binding result in the test with C3b (human) [1] and with C3b (human) [2] was “binds” in each case.
With “Complement Factor H (FH) (from UniProt P08603 19-1231)”, the binding result with C3b (human) [3] is listed as “binds”.
“Complement Factor H isoform FHL-1 (from UniProt P08603 19-445)”: the binding entry in the test with C3b (human) [4] is listed as “binds”.
